Laboratory results published in the supplement of paper PMC11732987, “Enantioselective OTUD7B fragment discovery through chemoproteomics screening and high-throughput optimisation” (Communications Chemistry, 2025).
The list shows a part of the results. The data scatter; read single values as rough.

What follows are compounds tested on T1, NACAD C1152 (assay: log2 mean competition ratio of IA-DTB cysteine labelling (DMSO/compound) (log2 ratio); higher = stronger cysteine engagement by compound). Settings: 50 µM; treatment time: 4 h; cell line lysate: HEK293T.
T1 sequence (whole entry): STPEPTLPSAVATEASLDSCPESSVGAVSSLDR
Experimental: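 IA-DTB competitive cysteine chemoproteomics in HEK293T RIPA lysate. Lysates were treated with compound 29 or 30 at 50 or 200 µM for 4 h, then IA-DTB (500 µM, 1 h), trypsin-digested, NeutrAvidin-enriched and analysed by diaPASEF. Competition ratio = intensity DMSO / intensity compound (n=4 treated, n=64 DMSO); binding: mean log2 CR ≥ 1 and p ≤ 0.05 plus QC filters. Target is the cysteine site.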

| SMILES | log2 mean competition ratio |
| --- | --- |
| O=C(CCl)N[C@@H]1CCCc2ccccc21 | -0.528 |
| O=C(CCl)N[C@H]1CCCc2ccccc21 | 0.174 |

Same assay, conditions: 200 µM; treatment time: 4 h; cell line lysate: HEK293T

| SMILES | log2 mean competition ratio |
| --- | --- |
| O=C(CCl)N[C@@H]1CCCc2ccccc21 | 0.145 |
| O=C(CCl)N[C@H]1CCCc2ccccc21 | -0.182 |
